Assay results taken from PMC6695567.
These are yes or no findings as the source states them, for the method shown. Binding seen in cells or lysates may run through a third protein. Some binding calls cover weakened binding; strength is not graded here. Sequences can lack the tags named with a protein.

Chains of the proteins cited; added tags and fusions are not shown.
UniProt P04150: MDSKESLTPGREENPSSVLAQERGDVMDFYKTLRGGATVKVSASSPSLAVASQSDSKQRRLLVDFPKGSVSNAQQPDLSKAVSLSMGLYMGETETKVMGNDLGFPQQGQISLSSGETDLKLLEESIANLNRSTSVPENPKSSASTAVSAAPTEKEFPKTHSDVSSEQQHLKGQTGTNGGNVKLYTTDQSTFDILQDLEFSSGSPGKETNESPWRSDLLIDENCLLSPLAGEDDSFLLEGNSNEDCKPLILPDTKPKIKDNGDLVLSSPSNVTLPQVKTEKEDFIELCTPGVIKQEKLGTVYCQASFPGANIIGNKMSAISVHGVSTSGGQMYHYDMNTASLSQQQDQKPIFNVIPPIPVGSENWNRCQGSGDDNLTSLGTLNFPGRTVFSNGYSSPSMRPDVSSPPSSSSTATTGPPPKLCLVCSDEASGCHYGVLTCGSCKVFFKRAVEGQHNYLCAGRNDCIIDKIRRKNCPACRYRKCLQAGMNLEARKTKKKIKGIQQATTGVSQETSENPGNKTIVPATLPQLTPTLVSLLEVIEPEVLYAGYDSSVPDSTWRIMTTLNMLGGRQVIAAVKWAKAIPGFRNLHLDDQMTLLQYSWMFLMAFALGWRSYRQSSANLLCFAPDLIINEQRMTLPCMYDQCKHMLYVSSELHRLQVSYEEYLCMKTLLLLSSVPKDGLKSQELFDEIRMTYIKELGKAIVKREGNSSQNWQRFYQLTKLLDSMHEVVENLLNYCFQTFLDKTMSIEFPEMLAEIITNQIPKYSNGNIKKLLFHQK
UniProt Q04206: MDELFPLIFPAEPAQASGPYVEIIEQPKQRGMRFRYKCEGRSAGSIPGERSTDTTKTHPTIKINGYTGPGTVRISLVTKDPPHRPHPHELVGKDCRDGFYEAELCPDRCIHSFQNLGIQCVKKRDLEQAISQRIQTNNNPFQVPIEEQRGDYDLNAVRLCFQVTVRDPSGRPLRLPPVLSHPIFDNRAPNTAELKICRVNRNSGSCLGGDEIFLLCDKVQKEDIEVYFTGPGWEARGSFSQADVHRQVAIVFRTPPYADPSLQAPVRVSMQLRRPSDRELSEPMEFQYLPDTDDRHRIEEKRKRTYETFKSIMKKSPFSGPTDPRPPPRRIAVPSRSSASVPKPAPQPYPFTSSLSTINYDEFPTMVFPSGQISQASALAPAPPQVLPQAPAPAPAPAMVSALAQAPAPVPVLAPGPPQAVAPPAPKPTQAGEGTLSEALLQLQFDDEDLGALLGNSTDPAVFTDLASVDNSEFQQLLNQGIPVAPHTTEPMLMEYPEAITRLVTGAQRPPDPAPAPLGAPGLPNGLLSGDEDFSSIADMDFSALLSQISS

Molecular target: T1, GST-PPARα (peroxisome proliferator-activated receptor α, NR1C1) (UniProt Q07869)
T1 sequence: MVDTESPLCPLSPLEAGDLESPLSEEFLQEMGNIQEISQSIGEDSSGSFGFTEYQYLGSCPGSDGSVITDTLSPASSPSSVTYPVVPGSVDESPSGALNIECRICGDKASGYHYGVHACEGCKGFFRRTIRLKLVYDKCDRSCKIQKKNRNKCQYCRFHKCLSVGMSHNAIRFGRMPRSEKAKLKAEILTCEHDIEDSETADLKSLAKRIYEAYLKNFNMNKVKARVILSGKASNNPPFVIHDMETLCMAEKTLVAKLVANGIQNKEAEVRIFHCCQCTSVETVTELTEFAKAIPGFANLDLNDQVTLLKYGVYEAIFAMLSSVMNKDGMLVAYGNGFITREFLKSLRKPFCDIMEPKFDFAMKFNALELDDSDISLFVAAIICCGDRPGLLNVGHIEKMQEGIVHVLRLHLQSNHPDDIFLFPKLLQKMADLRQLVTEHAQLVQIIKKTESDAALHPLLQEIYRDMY
Assay: pull-down; 2 μg GST-PPARα on glutathione beads with 10 μl in vitro translated [35S]-methionine labeled GRα or p65, with increasing amounts of non-labeled GRα, labeled GRα or labeled p65; 200 μl 20 mM Tris-HCl pH 8, 300 mM NaCl, 6 mM MgCl2, 8% glycerol, 0.05% Nonidet P-40, 0.1% dithiothreitol; 2 h at 4°C; washes at 500 mM NaCl; autoradiography; only the target purified

Substance | binding
GRα (glucocorticoid receptor α, NR3C1), in vitro translated (from UniProt P04150 1-777) | binds
p65 subunit of NF-κB, in vitro translated (from UniProt Q04206 1-551) | binds
